This note sets out measurements from paper PMC11608253.

The chains behind the UniProt entries cited, without tags or fusion partners.
UniProt Q86YZ3: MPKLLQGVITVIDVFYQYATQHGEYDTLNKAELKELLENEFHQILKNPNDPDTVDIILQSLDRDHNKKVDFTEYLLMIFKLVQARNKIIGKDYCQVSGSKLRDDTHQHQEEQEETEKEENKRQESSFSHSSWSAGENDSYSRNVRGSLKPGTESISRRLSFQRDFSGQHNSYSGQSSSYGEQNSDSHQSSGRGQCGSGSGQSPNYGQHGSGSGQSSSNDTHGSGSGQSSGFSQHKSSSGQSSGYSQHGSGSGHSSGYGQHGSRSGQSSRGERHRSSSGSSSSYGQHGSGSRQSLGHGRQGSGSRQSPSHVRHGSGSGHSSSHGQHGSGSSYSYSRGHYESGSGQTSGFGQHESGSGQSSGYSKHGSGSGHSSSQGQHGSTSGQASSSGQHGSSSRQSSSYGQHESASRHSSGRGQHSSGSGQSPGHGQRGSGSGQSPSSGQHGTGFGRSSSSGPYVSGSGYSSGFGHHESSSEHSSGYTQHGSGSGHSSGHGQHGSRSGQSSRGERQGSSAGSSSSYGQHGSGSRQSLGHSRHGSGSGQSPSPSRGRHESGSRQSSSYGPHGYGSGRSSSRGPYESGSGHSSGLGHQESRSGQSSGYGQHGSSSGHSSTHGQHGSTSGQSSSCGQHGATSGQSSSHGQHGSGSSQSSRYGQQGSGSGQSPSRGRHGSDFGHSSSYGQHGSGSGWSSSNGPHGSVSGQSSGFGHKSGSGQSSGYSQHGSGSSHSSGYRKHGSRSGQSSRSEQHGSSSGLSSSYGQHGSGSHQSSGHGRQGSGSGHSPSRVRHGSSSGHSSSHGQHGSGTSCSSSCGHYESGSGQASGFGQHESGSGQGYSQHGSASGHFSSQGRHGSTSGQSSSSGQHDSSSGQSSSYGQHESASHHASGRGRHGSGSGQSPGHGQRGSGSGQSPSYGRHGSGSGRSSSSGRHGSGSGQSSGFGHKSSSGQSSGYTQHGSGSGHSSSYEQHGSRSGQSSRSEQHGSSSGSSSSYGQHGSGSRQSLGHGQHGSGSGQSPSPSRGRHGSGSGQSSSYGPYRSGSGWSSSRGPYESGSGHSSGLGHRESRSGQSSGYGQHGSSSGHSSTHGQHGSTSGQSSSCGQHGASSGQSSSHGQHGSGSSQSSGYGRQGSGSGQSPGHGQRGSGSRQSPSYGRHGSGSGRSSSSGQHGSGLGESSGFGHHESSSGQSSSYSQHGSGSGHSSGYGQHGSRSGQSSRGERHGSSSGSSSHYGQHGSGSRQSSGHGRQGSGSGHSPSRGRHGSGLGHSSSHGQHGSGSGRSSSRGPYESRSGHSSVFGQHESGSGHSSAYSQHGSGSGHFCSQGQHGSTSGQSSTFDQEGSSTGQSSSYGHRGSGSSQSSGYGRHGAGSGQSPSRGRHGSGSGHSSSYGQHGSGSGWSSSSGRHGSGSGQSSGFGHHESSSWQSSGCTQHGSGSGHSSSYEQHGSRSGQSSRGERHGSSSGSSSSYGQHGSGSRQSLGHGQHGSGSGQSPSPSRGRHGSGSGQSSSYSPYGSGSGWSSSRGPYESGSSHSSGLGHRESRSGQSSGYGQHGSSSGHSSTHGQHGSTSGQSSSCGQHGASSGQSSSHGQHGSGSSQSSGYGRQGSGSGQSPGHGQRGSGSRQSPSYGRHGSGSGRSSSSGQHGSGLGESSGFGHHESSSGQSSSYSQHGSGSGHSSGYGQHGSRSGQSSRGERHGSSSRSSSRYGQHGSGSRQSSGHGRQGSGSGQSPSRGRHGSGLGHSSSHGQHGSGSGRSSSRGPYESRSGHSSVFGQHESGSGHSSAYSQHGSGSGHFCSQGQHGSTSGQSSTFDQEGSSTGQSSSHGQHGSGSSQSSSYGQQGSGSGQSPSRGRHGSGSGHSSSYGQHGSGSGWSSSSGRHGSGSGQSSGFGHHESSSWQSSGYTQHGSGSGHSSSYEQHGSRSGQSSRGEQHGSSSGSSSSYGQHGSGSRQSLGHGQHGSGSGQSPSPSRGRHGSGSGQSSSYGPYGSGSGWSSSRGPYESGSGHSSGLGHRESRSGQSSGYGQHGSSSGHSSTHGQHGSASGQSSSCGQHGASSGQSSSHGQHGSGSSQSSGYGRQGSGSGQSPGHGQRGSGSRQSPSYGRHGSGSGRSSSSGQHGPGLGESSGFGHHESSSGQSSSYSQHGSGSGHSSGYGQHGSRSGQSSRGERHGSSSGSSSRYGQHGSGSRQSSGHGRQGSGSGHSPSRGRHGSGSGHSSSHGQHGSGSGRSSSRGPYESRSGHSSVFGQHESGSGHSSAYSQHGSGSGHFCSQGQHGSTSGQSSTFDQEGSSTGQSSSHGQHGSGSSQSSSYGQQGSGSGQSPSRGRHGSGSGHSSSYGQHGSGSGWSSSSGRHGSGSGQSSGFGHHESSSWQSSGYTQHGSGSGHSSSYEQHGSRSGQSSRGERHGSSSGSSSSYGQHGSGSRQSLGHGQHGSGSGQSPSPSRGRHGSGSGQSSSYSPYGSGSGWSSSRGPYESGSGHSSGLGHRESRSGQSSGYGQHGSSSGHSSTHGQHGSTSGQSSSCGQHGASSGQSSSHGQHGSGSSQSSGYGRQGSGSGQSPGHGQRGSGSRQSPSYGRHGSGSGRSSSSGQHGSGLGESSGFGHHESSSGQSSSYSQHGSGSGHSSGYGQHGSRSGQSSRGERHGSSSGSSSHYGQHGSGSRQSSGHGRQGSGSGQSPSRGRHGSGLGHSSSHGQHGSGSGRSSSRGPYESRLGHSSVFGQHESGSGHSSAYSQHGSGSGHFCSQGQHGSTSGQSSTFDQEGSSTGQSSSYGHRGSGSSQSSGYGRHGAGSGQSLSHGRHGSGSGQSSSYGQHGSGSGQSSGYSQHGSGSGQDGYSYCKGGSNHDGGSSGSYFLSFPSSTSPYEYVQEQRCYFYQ
UniProt P49841: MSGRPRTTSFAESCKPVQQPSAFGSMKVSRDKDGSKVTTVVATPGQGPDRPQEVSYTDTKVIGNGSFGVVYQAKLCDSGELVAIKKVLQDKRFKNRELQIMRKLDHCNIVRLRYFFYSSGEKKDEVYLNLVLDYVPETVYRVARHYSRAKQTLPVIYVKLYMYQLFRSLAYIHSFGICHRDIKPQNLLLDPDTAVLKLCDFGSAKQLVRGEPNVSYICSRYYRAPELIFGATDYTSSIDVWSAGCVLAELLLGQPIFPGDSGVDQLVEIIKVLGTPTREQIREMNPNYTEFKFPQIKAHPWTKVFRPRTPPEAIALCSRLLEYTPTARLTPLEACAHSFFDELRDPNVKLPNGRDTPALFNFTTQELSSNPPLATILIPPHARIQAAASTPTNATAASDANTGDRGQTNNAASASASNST
UniProt Q9UBP6: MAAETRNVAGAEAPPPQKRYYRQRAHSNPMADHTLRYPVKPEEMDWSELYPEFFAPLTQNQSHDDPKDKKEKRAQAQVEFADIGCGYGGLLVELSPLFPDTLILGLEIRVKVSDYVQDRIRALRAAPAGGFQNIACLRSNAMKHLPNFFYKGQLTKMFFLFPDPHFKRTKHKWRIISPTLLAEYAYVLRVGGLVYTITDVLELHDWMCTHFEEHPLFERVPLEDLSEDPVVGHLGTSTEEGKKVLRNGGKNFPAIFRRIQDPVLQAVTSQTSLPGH

No constants are given. Whether binding was seen depends on the method and setting. In cells and extracts the contact can be indirect.

In the experiment the target is Hornerin (human (endogenous in HCC cell lines)) (UniProt Q86YZ3). Briefly: co-IP; proteins extracted with RIPA buffer, incubated with specific antibodies overnight, captured on Protein A agarose, washed with cold PBS, western blotting. In general terms: Immunoblotting shows a protein as a band on a membrane.

As to “GSK3β (from UniProt P49841 1-420) (enzyme)”, the binding entry is given as “no binding”.
On to “METTL1 (from UniProt Q9UBP6 1-276) (enzyme)”, for which the binding entry is listed as “no binding”.
